Measured values published in PubChem BioAssay AID2685 (National Center for Advancing Translational Sciences (NCATS), 2010).
This is one part of the list. Shown are side measurements of this screen, not its main read-out; they come without a call. Most of these compounds were active or inconclusive in the main read-out, so they are no random draw. The note in brackets gives the kind of curve behind each potency; many fits are weak.

Assay: qHTS Assay for Lipid Storage Modulators in Drosophila S3 Cells;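 as to cell number change: cells counted by Cell Tracker Red CMTPX staining in the red channel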
Conditions: BODIPY lipid droplet fluorescence, 18-24 h; for cell number change: measured here: cell count max response, cells fed with added oleic acid
In short: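 Drosophila S3 cells loaded with oleic acid (400 uM, as added) and compounds at several concentrations; lipid droplets imaged by 488-nm laser-scanning cytometry, 500–530 nm intensity and object ratio to cell channel. Percent activity normalized to 20 uM Triacsin C.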

[1] = measured here: cell number channel AC50, cells fed with added oleic acid
[2] = measured here: lipid fluorescence (Fed channel) AC50, cells fed with added oleic acid

SMILES	AC50 [1]	AC50 [2]	cell number change [%]
O=C(Nc1cc(S(=O)(=O)N2CCOCC2)ccc1OCC(F)(F)F)C1=COCCO1	2.91 µM [rising, partial curve, poor fit]	–	–
COc1ccc([N+](=O)[O-])cc1NCC(=O)c1ccc(C)cc1	–	0.58 µM [falling, single point]	–
CCN(CC)CCCn1c(C)cc2c(c1=O)C(c1cccc(Cl)c1)C(C#N)=C(N)O2 (stereo not drawn)	–	4.11 µM [falling, partial curve, poor fit]	-9.16
CC(=O)Nc1ccc(S(=O)(=O)N2CCC(NC(=O)c3ccco3)CC2)cc1	29.1 µM [rising, single point]	–	31.2
CCC(Oc1ccc(Br)cc1)C(=O)N1CCN(c2ncccn2)CC1 (stereo not drawn)	25.9 µM [rising, partial curve, poor fit]	29.1 µM [rising, partial curve]	68.3
CCOC(=O)c1cc(NC(=O)CCC(=O)O)ccc1N1CCCCC1	4.61 µM [falling, partial curve]	25.9 µM [falling, partial curve]	-63.3
CN(C)/C=C(/C(=O)c1ccc(F)cc1)S(=O)(=O)c1ccc(F)cc1	–	29.1 µM [rising, single point]	-3.38
CN(C(=O)CN1C(=O)/C(=C/c2ccccc2Cl)SC1=S)C1CCS(=O)(=O)C1 (stereo not drawn)	–	6.51 µM [falling, partial curve, poor fit]	-15.3
COc1ccc(C2=C/C(=C\c3cccc(OC(C)=O)c3)C(=O)O2)cc1	–	–	6.35
Cc1ccc(NC(=O)CCS(=O)(=O)c2cccc3nonc23)cc1Cl	–	–	23.9
COc1ccc(C(=O)Cc2cnn(-c3ccccc3)c2)c(O)c1	–	18.4 µM [rising, partial curve]	21.7
CCCCc1ccc(NC(=O)c2ccc(N(C)S(C)(=O)=O)cc2)cc1	–	–	-3.27
COc1ccccc1C(=O)COC(=O)CNC(=O)c1ccc(Br)o1	–	0.82 µM [rising, full curve]	7.48
O=C(NCc1ccco1)c1ccccc1NS(=O)(=O)c1ccc(Cl)s1	29.1 µM [falling, single point]	–	-46.9
COc1ccc(CN(C)C(=O)c2ccc(OCC(=O)Nc3cccc(C(F)(F)F)c3)c(OC)c2)c(OC)c1	1.84 µM [rising, partial curve, poor fit]	1.84 µM [rising, partial curve]	24.6
CCOC(=O)c1sc2ncnc(NCC(c3cccs3)N(C)C)c2c1C (stereo not drawn)	23.1 µM [rising, partial curve, poor fit]	–	51.6
C=CCn1c(C(C)(C)C)nc2ccccc21	–	6.51 µM [falling, single point]	-12
CCn1c2ccccc2c2cc(CC(N)=O)ccc21	–	0.82 µM [rising, full curve, poor fit]	27.6
CCOC(=O)CCNC(=O)Nc1ccc2nc(C)n(Cc3ccc(Cl)cc3)c(=O)c2c1	–	0.517 µM [rising, full curve, poor fit]	-4.62

Nothing new here: an excerpt of the list.
SMILES	AC50 [1]	AC50 [2]	cell number change [%]
CN(C)/C=C(/C(=O)c1ccc(F)cc1)S(=O)(=O)c1ccc(F)cc1	–	29.1 µM [rising, single point]	-3.38
CN(C(=O)CN1C(=O)/C(=C/c2ccccc2Cl)SC1=S)C1CCS(=O)(=O)C1 (stereo not drawn)	–	6.51 µM [falling, partial curve, poor fit]	-15.3
COc1ccc(C2=C/C(=C\c3cccc(OC(C)=O)c3)C(=O)O2)cc1	–	–	6.35
Cc1ccc(NC(=O)CCS(=O)(=O)c2cccc3nonc23)cc1Cl	–	–	23.9
COc1ccc(C(=O)Cc2cnn(-c3ccccc3)c2)c(O)c1	–	18.4 µM [rising, partial curve]	21.7
CCCCc1ccc(NC(=O)c2ccc(N(C)S(C)(=O)=O)cc2)cc1	–	–	-3.27
COc1ccccc1C(=O)COC(=O)CNC(=O)c1ccc(Br)o1	–	0.82 µM [rising, full curve]	7.48
O=C(NCc1ccco1)c1ccccc1NS(=O)(=O)c1ccc(Cl)s1	29.1 µM [falling, single point]	–	-46.9
COc1ccc(CN(C)C(=O)c2ccc(OCC(=O)Nc3cccc(C(F)(F)F)c3)c(OC)c2)c(OC)c1	1.84 µM [rising, partial curve, poor fit]	1.84 µM [rising, partial curve]	24.6
CCOC(=O)c1sc2ncnc(NCC(c3cccs3)N(C)C)c2c1C (stereo not drawn)	23.1 µM [rising, partial curve, poor fit]	–	51.6

The results go on.

SMILES	AC50 [1]	AC50 [2]	cell number change [%]
CCOC(=O)C1=NN(C(C)=O)C2C(=O)N(CC)C(=O)C12 (stereo not drawn)	–	–	-14.6
O=C(Cn1c(=S)[nH]c2ccccc21)c1ccccc1	20.6 µM [rising, single point]	23.1 µM [rising, partial curve]	77.1
COc1ccc(-c2cc(CC3(C(=O)O)CCN(C(=O)OC(C)(C)C)CC3)on2)c(OC)c1	20.6 µM [rising, partial curve]	0.164 µM [falling, full curve, poor fit]	46
CC1CN(C(=O)COc2ccc3c(-c4ccccc4)cc(=O)oc3c2)CC(C)O1 (stereo not drawn)	–	0.517 µM [falling, partial curve, poor fit]	-10.1
CC12CC3CC(C)(C1)CC(C(=O)N1CCN(C(=O)C4CCCO4)CC1)(C3)C2 (stereo not drawn)	–	29.1 µM [rising, single point]	-1.66
O=C(c1ccc(Cl)c(S(=O)(=O)N2CCc3ccccc3C2)c1)N1CCN(c2ccccc2)CC1	–	6.51 µM [rising, single point]	-17.7
CC(=O)Nc1ccc(C(=O)N/N=C/C2CC3C=CC2C3)cc1 (stereo not drawn)	0.291 µM [falling, full curve, poor fit]	6.51 µM [falling, partial curve]	-35.8
CCC(C)N1CC(=O)N2C(c3ccc(OC)cc3OC)c3[nH]c4ccccc4c3C[C@H]2C1=O (stereo partly drawn)	–	–	-6.94
O=C(NNC(=O)c1cc(-c2ccc(Cl)cc2Cl)nc2ccccc12)Nc1ccccc1	–	–	-2.21
COc1ccc(Cl)cc1C1=CC(=O)C[C@H](c2ccc(F)cc2)C1	–	0.731 µM [rising, partial curve]	8.99
Cc1ccc(C)c(Cn2nnc3c(=O)[nH]c(C4CCN(S(=O)(=O)c5ccc(S(=O)(=O)N(C)C)cc5)CC4)nc32)c1	–	29.1 µM [rising, single point]	21.7
OC(CN1C2=NCCCN2c2ccccc21)c1ccc(Cl)cc1 (stereo not drawn)	–	0.58 µM [falling, partial curve]	14.2
CC1=NN(Cc2c(C)nn(Cc3ccccc3)c2C)C(C)(C)C1	–	0.411 µM [falling, partial curve, poor fit]	-7.28
Cc1ccc(CN2C(=O)N/C(=C\c3cccn3-c3cccc(C(=O)O)c3)C2=O)cc1	6.51 µM [falling, single point]	2.06 µM [falling, partial curve]	-5.29
COc1ccc(NC(=O)CN(c2ccc(OC)c(Cl)c2)S(=O)(=O)c2ccccc2)c(OC)c1	–	–	5.61
O=C(OCc1c(Cl)cccc1Cl)c1ccncc1	–	–	-18.3
COc1ccc(NC(=O)CNC(=O)c2nn(-c3ccc(OC)c(OC)c3)c(=O)c3ccccc23)c(OC)c1	–	–	27.8
CC(=O)N(c1nc(CCl)cs1)c1c(C)cc(C)cc1C	14.6 µM [falling, partial curve]	–	-39.2
CCCCCCN1C(=O)C(O)=C(C(C)=O)C1c1ccccc1[N+](=O)[O-] (stereo not drawn)	8.2 µM [falling, partial curve, poor fit]	23.1 µM [falling, partial curve]	-31.4
